Data taken from PubChem BioAssay AID1224904, deposited by Broad Institute (2016).

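Selective DUX4 reporter inhibition in doxycycline-induced 293T-iDUX4 cells, scored as Gaussia percent activity minus Italica percent activity, after a 24-hour treatment.
The test concentration is not given here.
Percent difference between the Gaussia and Italica channels; more negative values mean more selective suppression of the DUX4 reporter, and higher values mean less activity.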

Values are in %.
How 0% and 100% were set is not given here.
Common to all entries: measured here: selective DUX4 reporter inhibition.
Part of the compounds only, not a random draw; the main read-out is not listed here.

structure,Gaussia minus Italica difference (%)
COc1ccc2c3c([nH]c2c1)[C@H](CO)N(Cc1cccc(F)c1)CC31CN(C(C)=O)C1,4.003
COc1ccccc1S(=O)(=O)N1CC[C@H]2[C@H](CO)Nc3ccc(-c4ccc(F)cc4)cc3[C@H]21,21.58
CN1c2ccc(-c3ccccc3)cc2[C@@H]2[C@@H](CCN2C(=O)NC2CCCCC2)[C@H]1CO,10.77
O=C(C[C@H]1CC[C@H]2[C@@H](COC[C@H](O)CN2S(=O)(=O)c2ccc(F)cc2)O1)NCc1ccc(Cl)c(Cl)c1,-11.39
COc1ccc2c3c(n(C)c2c1)[C@H](CO)N(Cc1ccccc1)CC31CCN(C(=O)C2CC2)CC1,-8.571
CCCNC(=O)N1CC2(CN(Cc3cccc(F)c3)C2)c2c([nH]c3cc(OC)ccc23)[C@H]1CO,-1.644
CC(C)CC#Cc1ccc([C@H]2[C@@H](CO)N3C(=O)CN(C(=O)c4cccc(F)c4)C[C@@H]23)cc1,-10.52
C[C@@H](NC(=O)C[C@@H]1C[C@@H]2c3cc(NC(=O)Nc4ccccc4F)ccc3O[C@@H]2[C@@H](CO)O1)c1ccccc1,-12.34
COc1ccccc1NC(=O)N1C[C@@H]2N[C@H](C1)C2c1ccc(/C=C/c2ccccc2)cc1 (some centres unmarked),-1.747
COc1ccc(C#Cc2ccc([C@@H]3[C@H]4CN(C(=O)Nc5ccccc5)CCCCN4[C@H]3CO)cc2)cc1,4.51
O=C(C[C@@H]1C[C@H]2c3cc(NC(=O)Nc4ccc(C(F)(F)F)cc4)ccc3O[C@H]2[C@@H](CO)O1)NCCc1ccccc1,-18.69
COc1ccc(S(=O)(=O)N2CC[C@H]3[C@@H](CO)N(C)c4ccc(-c5ccccc5F)cc4[C@H]32)cc1,-17.94
O=C(C[C@H]1CC[C@@H]2[C@H](COC[C@@H](O)CN2C(=O)Nc2cccc(F)c2)O1)NCc1ccccc1Cl,-6.329
C[C@@H]1CN([C@@H](C)CO)C(=O)c2c(c3ccccc3n2C)-c2ccccc2CO[C@H]1CN(C)Cc1ccc(F)cc1,-23.28
OC[C@H]1[C@@H](c2ccccc2)C2(CN(Cc3nccs3)C2)N1Cc1cc(F)ccc1F,-10.06
COc1ccc2c3c(n(C)c2c1)[C@H](CO)N(Cc1ccc2c(c1)OCO2)CC31CCN(C(=O)C2CC2)CC1,-7.874
COc1ccc(CN2C[C@H](O)COC[C@H]3O[C@H](CC(=O)N4CCc5ccccc5C4)CC[C@@H]32)cc1,-9.296
COc1ccc(NC(=O)N2CC(=O)N3[C@H](C2)[C@@H](c2ccc(-c4ccc(C)cc4)cc2)[C@@H]3CO)cc1,0.2572
O=C(c1ccc(F)cc1)N1C[C@@H]2N[C@H](C1)C2c1ccc(-c2ccccc2F)cc1 (some centres unmarked),-17.49
O=C(c1ccc(F)cc1)N1CC(=O)N2[C@H](C1)[C@H](c1ccc(C#CCC3CCCC3)cc1)[C@@H]2CO,-8.867
Cc1ccc(S(=O)(=O)N2C[C@@H]3N[C@H](C2)C3c2ccc(-c3ccncc3)cc2)cc1 (some centres unmarked),-4.331
COc1cccc(CN2C[C@@H]3N[C@H](C2)C3c2ccc(-c3ccccc3OC)cc2)c1 (some centres unmarked),-16.86
O=C1CN(S(=O)(=O)Cc2ccccc2)C[C@H]2[C@H](c3ccc(C#Cc4ccccc4)cc3)[C@H](CO)N12,0.197
COc1ccc2c3c(n(C)c2c1)[C@@H](CO)N(Cc1ccccc1Cl)CC31CCN(C(=O)CN(C)C)CC1,-6.639
COc1cccc(CN2[C@H](CO)[C@@H](c3ccccc3)C23CN(C(=O)C2CCCCC2)C3)c1,-20.73
COc1ccc2c3c([nH]c2c1)[C@@H](CO)N(C(=O)Nc1ccc(F)cc1)CC31CN(CC2CC2)C1,-15.44
C[C@@H]1CN([C@H](C)CO)C(=O)CCCn2nncc2CO[C@@H]1CN(C)Cc1ccc(Cl)c(Cl)c1,-15.17
c1cncc(-c2ccc(C3[C@@H]4CN(Cc5nccs5)C[C@H]3N4)cc2)c1 (some centres unmarked),-20.58
COc1ccc(C#Cc2ccc3c(c2)[C@H]2[C@H](CCN2C(=O)Nc2ccc(C(F)(F)F)cc2)[C@H](CO)N3C)cc1,-11.43
COc1ccc2c3c(n(C)c2c1)[C@@H](CO)N(S(=O)(=O)c1ccc(C)cc1)CC31CCN(Cc2cccnc2)CC1,-12.36
COc1ccccc1NC(=O)N(C)C[C@@H]1OCc2ccccc2-c2c(n(C)c3ccccc23)C(=O)N([C@@H](C)CO)C[C@@H]1C,-13.79
C[C@@H](C(=O)N(C)C[C@H]1OCc2ccccc2-c2c(n(C)c3ccccc23)C(=O)N([C@@H](C)CO)C[C@@H]1C)c1ccccc1,-4.441

Once more, the final 2:

{"structure": "COc1ccccc1NC(=O)N(C)C[C@@H]1OCc2ccccc2-c2c(n(C)c3ccccc23)C(=O)N([C@@H](C)CO)C[C@@H]1C", "Gaussia minus Italica difference (%)": "-13.79"}
{"structure": "C[C@@H](C(=O)N(C)C[C@H]1OCc2ccccc2-c2c(n(C)c3ccccc23)C(=O)N([C@@H](C)CO)C[C@@H]1C)c1ccccc1", "Gaussia minus Italica difference (%)": "-4.441"}